PMC11781186
Results are given in words; binding and its absence hold for the method and conditions named. In cells and extracts the contact can be indirect. Here binding means that the protein was enriched with, or labelled near, the bait; the list need not be complete.

Chains of the proteins cited; added tags and fusions are not shown. Residues count along the entry.
UniProt P29317, residues 24-976: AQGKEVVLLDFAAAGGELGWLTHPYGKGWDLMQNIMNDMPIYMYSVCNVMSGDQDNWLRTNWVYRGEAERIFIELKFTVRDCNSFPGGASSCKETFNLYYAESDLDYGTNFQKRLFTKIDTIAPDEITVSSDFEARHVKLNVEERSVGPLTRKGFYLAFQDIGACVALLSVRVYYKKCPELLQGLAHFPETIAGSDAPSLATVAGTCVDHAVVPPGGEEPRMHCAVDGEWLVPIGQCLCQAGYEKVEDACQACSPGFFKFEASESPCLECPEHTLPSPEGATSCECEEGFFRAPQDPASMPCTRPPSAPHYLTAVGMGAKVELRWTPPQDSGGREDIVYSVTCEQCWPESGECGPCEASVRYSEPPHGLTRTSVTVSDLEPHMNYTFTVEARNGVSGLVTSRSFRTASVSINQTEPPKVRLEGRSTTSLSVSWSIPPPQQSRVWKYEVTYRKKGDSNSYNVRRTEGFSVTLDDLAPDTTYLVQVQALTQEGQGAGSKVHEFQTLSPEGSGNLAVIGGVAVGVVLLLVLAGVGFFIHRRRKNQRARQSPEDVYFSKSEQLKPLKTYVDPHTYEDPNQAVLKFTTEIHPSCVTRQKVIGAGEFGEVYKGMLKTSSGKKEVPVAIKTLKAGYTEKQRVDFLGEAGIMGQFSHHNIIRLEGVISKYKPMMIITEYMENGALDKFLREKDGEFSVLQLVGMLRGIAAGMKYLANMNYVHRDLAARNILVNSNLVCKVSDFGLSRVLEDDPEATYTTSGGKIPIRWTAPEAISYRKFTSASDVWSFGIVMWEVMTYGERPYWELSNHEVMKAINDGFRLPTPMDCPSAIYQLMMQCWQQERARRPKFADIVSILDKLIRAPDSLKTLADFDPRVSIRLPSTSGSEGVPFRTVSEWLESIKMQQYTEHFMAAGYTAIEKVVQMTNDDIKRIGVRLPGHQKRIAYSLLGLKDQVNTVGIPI
UniProt P45974: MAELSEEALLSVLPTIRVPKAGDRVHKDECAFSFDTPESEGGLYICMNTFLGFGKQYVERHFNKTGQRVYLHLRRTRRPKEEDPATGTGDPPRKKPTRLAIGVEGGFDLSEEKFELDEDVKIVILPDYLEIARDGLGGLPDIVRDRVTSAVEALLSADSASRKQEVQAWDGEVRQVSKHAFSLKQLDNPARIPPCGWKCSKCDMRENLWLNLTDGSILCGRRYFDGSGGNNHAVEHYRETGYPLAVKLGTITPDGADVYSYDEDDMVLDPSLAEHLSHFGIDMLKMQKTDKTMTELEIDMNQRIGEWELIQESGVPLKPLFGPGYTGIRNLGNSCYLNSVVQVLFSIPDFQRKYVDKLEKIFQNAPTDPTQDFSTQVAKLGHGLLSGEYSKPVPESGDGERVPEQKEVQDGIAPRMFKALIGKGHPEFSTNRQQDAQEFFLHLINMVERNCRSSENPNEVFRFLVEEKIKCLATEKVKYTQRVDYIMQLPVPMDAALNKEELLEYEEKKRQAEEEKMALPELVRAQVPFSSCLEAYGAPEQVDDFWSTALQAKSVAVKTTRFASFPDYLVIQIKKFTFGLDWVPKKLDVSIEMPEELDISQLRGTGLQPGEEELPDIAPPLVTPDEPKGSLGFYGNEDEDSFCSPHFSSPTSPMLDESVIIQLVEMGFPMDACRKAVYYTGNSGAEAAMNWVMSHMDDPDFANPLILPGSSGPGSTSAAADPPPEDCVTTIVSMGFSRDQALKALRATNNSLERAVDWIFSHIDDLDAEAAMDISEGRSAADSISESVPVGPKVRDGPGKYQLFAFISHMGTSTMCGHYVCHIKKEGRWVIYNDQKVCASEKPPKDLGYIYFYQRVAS

Biological target: ephrinA2 receptor (EphA2), endogenous (human (endogenous in HK1 and 5-8F)) (UniProt P29317)
Assay: affinity purification with mass spectrometry; immunoprecipitation of EphA2 from NPC cells and mass spectrometry (IP-MS); USP5 peptide … matched by Mascot

With “ubiquitin specific peptidase 5 (USP5), endogenous (from UniProt P45974 1-858) (enzyme)” the binding was “binds”.
